The results in this text go back to paper PMC7744417.

Test [1] deals with T1, Flag-FHA (FHA domain containing protein SiRe_1010), co-expressed in E. coli (Sulfolobus islandicus) (UniProt F0NGR1).
T1 sequence: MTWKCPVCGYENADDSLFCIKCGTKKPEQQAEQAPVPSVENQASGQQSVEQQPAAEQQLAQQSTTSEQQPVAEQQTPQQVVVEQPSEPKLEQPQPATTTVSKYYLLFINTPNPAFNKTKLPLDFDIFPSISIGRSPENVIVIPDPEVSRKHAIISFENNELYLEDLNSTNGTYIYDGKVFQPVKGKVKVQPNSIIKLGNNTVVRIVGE
The test is described as follows: pull-down; FHA and vWA co-expressed in E. coli; supernatant of heat-treated cell extract on anti-Flag beads in buffer A (50 mM Tris-HCl pH 7.5, 150 mM NaCl, 5% glycerol), 25°C, 1 h; eluted with 0.1 M Gly-HCl; Western blot with anti-His antibody. Background: A western blot detects proteins with antibodies after separation by electrophoresis.

The target of test [2] is T2, His-FHA (FHA domain containing protein SiRe_1010), co-expressed in S. islandicus (Sulfolobus islandicus) (UniProt F0NGR1).
T2 sequence: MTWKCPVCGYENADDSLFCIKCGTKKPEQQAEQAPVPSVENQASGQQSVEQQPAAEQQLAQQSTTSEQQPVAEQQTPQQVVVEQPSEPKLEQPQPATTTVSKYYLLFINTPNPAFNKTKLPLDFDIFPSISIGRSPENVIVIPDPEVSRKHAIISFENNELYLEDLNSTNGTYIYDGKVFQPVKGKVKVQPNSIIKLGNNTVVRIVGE
Nature of the test: pull-down; His-FHA and Flag-vWA co-expressed in S. islandicus; cell extract on Ni-NTA agarose, eluted with lysis buffer with 250 mM imidazole; Western blot with anti-Flag antibody.

No constants are given. Whether binding was seen depends on the method and setting. In cells and extracts the contact can be indirect. Some results given as binding are weak or reduced against the parent protein; the word gives no strength. Sequences can lack the tags named with a protein.

B1: His-vWA2 (von Willebrand type A domain protein SiRe_1011), co-expressed in E. coli (protein, UniProt F0NGR2 1-356)
chain: MTIAINLKQSHTYAYSDRPTEVGFVIYITPQQSSVTSSIHYIIMIDNSPSMRGEKLNTAVQSAQKLLYNLNEGNYVTLILFSNHPEIKYQGPAKGIITFDVGKGYTTRLHEAVSFTINLAKQSQVPTKIIMLTDGKPTDKRNVKDYEKLDIPPNTQIITIGIGNDYNERILKKLADRSSGKFYHIKDISELPNIFESQRTTSTYAHNLNLIVPQGFMPFNYDLPIRIPIVEKLIAVYGSFVIPAGKEPYTITFSADYIDPIDNQRKTVTKSVILQRGNPQFVESHADRDVILEIRYYRLLREYSEALEAGKDATKVLNELKRVAEETRRPELIEETKKLSNDSKSDLSEITRKMRQ
For B1, the binding entry in test [1] was “binds”.

B2: Flag-vWA2 (von Willebrand type A domain protein SiRe_1011), co-expressed in S. islandicus (protein, UniProt F0NGR2 1-356)
chain: MTIAINLKQSHTYAYSDRPTEVGFVIYITPQQSSVTSSIHYIIMIDNSPSMRGEKLNTAVQSAQKLLYNLNEGNYVTLILFSNHPEIKYQGPAKGIITFDVGKGYTTRLHEAVSFTINLAKQSQVPTKIIMLTDGKPTDKRNVKDYEKLDIPPNTQIITIGIGNDYNERILKKLADRSSGKFYHIKDISELPNIFESQRTTSTYAHNLNLIVPQGFMPFNYDLPIRIPIVEKLIAVYGSFVIPAGKEPYTITFSADYIDPIDNQRKTVTKSVILQRGNPQFVESHADRDVILEIRYYRLLREYSEALEAGKDATKVLNELKRVAEETRRPELIEETKKLSNDSKSDLSEITRKMRQ
Take B2: the binding result in test [2] is “binds”.

B3: His-vWA1 (von Willebrand type A domain protein SiRe_1008), co-expressed in E. coli (protein, UniProt F0NGQ9 1-380)
chain: MTLSLRVDTSHKYSFSGDVRYIFKVLLVPEKLGSATGFHYIVALDTSGSMTGYKIELAKQGAIELFKRIPKGNKVSFITFSSNVTVIKEFVDPLDLTNEILQIAAGGQTALYTAILTANSLAKKYQMPTYLLLLTDGNPTDETNVGNYLKLPYFEKMQVYSFGIGDDYNEQLLQSISDKTSGVMYHISDANEIPQKLPQKAVTQIAAKNVTVDIAAEGNVKLLNYATTPVKVNGIENVIKIFGETILPANYEGSFLTVKVNYEDPVTNKLESLLQVVQVKRAQDQNTFVSGINNDVINEYRYYELLDKYAKQVQAEQLIEATKTLNQLNEIAQQTRRIDFMETTRRLSEGLETTKRIGTVEQTKRLSKEVTSEVTRKLRE
In the case of B3, the binding result in test [1] was “binds”.

B4: Flag-vWA1 (von Willebrand type A domain protein SiRe_1008), co-expressed in S. islandicus (protein, UniProt F0NGQ9 1-380)
chain: MTLSLRVDTSHKYSFSGDVRYIFKVLLVPEKLGSATGFHYIVALDTSGSMTGYKIELAKQGAIELFKRIPKGNKVSFITFSSNVTVIKEFVDPLDLTNEILQIAAGGQTALYTAILTANSLAKKYQMPTYLLLLTDGNPTDETNVGNYLKLPYFEKMQVYSFGIGDDYNEQLLQSISDKTSGVMYHISDANEIPQKLPQKAVTQIAAKNVTVDIAAEGNVKLLNYATTPVKVNGIENVIKIFGETILPANYEGSFLTVKVNYEDPVTNKLESLLQVVQVKRAQDQNTFVSGINNDVINEYRYYELLDKYAKQVQAEQLIEATKTLNQLNEIAQQTRRIDFMETTRRLSEGLETTKRIGTVEQTKRLSKEVTSEVTRKLRE
Regarding B4, the binding result in test [2] is “binds”.
